This is an account of results in paper PMC12446476 (Nature Communications, 2025).

This continues a long series; more values of the same kind are listed elsewhere.

The subject of the assay is intracellular N. gonorrhoeae. The assay is described as follows: Intracellular killing in HeLa229 cells. It counts as cell-based, Neisseria gonorrhoeae. The following applies: isolate NCTC 13820; 24 hr; 8X MIC; dilution 0; replicates 1-3, counts 1-2. As for the experimental part:
Intracellular killing was assessed within HeLa229 cells (European Collection of Authenticated Cell Cultures, London, UK) that were seeded at ~3 × 10^5 cells/mL and grown to 70–80% confluence in RPMI-glutamine media supplemented with 10% (v/v) heat-inactivated fetal bovine serum (FBS, Gibco, MA, USA). Cells were incubated at 37 °C with 5% CO2 for 24 h, then washed with serum-free RPMI-1640 prior to infection. N. gonorrhoeae was scraped from agar plates and resuspended in Dulbecco’s Phosphate Buffered Saline (DPBS, Sigma-Aldrich), pelleted, then resuspended in RPMI with 2% FBS. Bacterial suspensions were used to infect HeLa229 cells at a multiplicity of infection of 100:1. Plates were briefly centrifuged (500 × g for 5 min), then incubated for one hour. This incubation and all subsequent incubations were performed at 37 °C with 5% CO2. Non-adherent cells were removed by washing with serum-free RPMI, and the remaining extracellular bacteria were killed via resuspension in RPMI-glutamine supplemented with 2% FBS and 200 μg/mL gentamycin and incubation for one hour. […] Azithromycin-treated samples were included for control/comparison. […] Samples were diluted and plated onto chocolate II agar for viable bacteria quantification. Intracellular killing assays were performed at Microbiologics, Kalamazoo, MI, USA, using a method adapted from previous studies[68],[69].

Consider `Cc1c(CN(C)C(=O)/C=C/c2cnc3c(c2)N[C@H](C)[C@H](O)C(=O)N3)oc2ccccc12` [Debio 1453], for which the “Colony forming units (CFU) of N. gonorrhoeae internalised in HeLa229 cells, colony count” value was determined as 0 CFU.
